# No constants are given. Whether binding was seen depends on the method and setting. Some binding calls cover weakened binding; strength is not graded here.
# By UniProt entry, the sequences of proteins in these tests, tags left out. Where a name states a change or a piece, a line headed by the entry shows the natural chain unless it says otherwise. Residues count along the entry.
# UniProt Q15109: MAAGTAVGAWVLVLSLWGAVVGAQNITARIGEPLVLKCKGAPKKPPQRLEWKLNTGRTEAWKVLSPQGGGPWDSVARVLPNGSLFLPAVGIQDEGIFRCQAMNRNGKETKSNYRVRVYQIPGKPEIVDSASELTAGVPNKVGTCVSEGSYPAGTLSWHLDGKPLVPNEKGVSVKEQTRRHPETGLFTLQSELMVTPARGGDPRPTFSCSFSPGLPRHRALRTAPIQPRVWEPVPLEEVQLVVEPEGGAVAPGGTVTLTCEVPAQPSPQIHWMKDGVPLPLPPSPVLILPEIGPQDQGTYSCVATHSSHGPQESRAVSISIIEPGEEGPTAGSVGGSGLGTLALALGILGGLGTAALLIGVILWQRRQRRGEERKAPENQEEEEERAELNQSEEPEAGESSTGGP
# UniProt Q62151, residues 23-340: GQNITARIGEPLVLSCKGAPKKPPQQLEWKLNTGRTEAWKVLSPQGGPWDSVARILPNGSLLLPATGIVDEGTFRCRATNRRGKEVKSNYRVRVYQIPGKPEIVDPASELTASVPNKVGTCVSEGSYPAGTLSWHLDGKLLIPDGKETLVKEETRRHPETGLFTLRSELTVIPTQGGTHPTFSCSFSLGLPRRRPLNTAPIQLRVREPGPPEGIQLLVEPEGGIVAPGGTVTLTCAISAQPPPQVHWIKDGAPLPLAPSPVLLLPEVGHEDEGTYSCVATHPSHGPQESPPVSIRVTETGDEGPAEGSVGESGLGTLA
# Legend:
# [1] = biological target: BacMam-expressed sRAGE (human) (UniProt Q15109); test: antigen bound to antibody immobilized on CNBr-Sepharose (epitope excision)
# [2] = biological target: mouse RAGE (Mu-RAGE) (mouse) (UniProt Q62151); test: Biacore SPR (Table 7, column Mouse-RAGE)
# [3] = biological target: recombinant husRAGE protein 293/6.1 sRAGE His 6 (1-331 sRAGE-HIS) (human) (UniProt Q15109); test: dot blot, non-denatured protein on nitrocellulose, antibody 7.14 nM
# [4] = biological target: recombinant husRAGE protein 293/6.1 sRAGE His 6 (1-331 sRAGE-HIS) (human) (UniProt Q15109); test: HTRF competition: husRAGE-His pre-incubated with antibody; blocked ligand: biotinylated Aβ1-42 globulomer; anti-6His cryptate / streptavidin XL-665
binding [1],binding [2],binding [3],binding [4],Binder
binds,–,–,–,"anti-human RAGE monoclonal antibody 4E5 (murine, hybridoma-derived) (antibody, V domains shown) VH: QVQLQQSGAELVRPGTSVKVSCKASGYAFNNYLIEWIKQRPGQGLEWIGVINPGSGGTNHNEKFKVKATLTADKSSSTAYIQLSSLTSDDSAVYFCARSAGTARARFAYWGQGTLVTVSA VL: DIQMTQSPSSLSASLGERVSLTCRASQDIGSSLNWLQQEPDGTIKRLIYATSSLDSGVPKRFSGSRSGSDYSLTISSLESEDFVDYYCLQYASFPFTFGSGTKLEIKR"
–,binds,–,–,"anti-human RAGE monoclonal antibody 11E6 (murine, hybridoma-derived) (antibody, V domains shown) VH: QIQLVQSGPELKKPGETVKISCKASGYTFTNFGMNWVKQAPGKGLKWMGYINTNTGESIYSEEFKGRFAFSLETSASTAYLQINNLKNEDTATYFCARSRMVTAYGMDYWGQGTSVTVSS VL: DIVMTQSQKFMSTSVGDRVSITCKASQNVGTAVAWYQQRPGQSPKLLIFSASNRYTGVPDRFTGSGSGTDFTLTLSNMQPEDLADYFCQQYSSYPLTFGVGTKLELKR"
binds,binds,binds,binds,"anti-human RAGE monoclonal antibody 7F9 (murine, hybridoma-derived) (antibody, V domains shown) VH: EEKLEESGGGLVQLGGSMKISCVASGFTLSNYWMDWVRQSPEKGLEWIAEIRLKSNYYSTHYAESVKGRFSISRDDSKGSVSLQMDNLTAEDTGIYFCARNAYWYFDVWGTGTTVTVSS VL: DIVMTQSHKFMSTSVGDRVSATCKASQDVGTSVAWYQQKLGQSPKLLIYWTSTRHTGVPDRFTGSGSGTDFTLTISNVQSEDLADYFCQQYNNYPLTFGDGTKLELKR"
